{"source": "PubChem BioAssay AID720705 (Peter MacCallum Cancer Centre, 2013)", "purpose": "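Retest of 50 candidate kinases for effects on angiotensin II–triggered EGFR signalling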 (follow-up of hits)", "cell system": "human HMEC-LST-AT1R mammary epithelial cells", "knock-down reagent": "single siRNA against human genes, 25 nM per duplex", "time to read-out": "72 h after transfection", "challenge": "angiotensin II stimulation; dose and duration not given", "measurement": "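Signed fold change in phospho-ERK1/2 (AlphaScreen SureFire bead assay) after angiotensin II, relative to the average of mock and GFP siRNA controls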", "reading the numbers": "duplexes agreeing on an effect (of 4): higher = more duplexes of this gene agree on an effect; signed phospho-ERK fold change vs controls: higher = more ERK phosphorylation than controls; negative values are decreases", "rule for the call": "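a duplex scores when phospho-ERK changes more than 1.5-fold in either direction; a gene is active if at least 2 of 4 duplexes agree in direction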", "calls": "active = high/medium confidence (2-4 of 4 duplexes); inactive = low confidence (0-1 of 4 duplexes)", "note": "Here is a random part of 200 reagents tested. Over the whole deposit, 116 (58%) got an active call. 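Negative fold changes mean less ERK phosphorylation; hits count in both directions; calls are per gene.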 Unmarked entries are inactive. Reagents against one gene are numbered here. Reagent sequences are not shown."}
{"gene": "CSNK1G1 (casein kinase 1 gamma 1)", "reagent": 1, "duplexes agreeing on an effect (of 4)": 1, "signed phospho-ERK fold change vs controls": -1.18}
{"gene": "CSNK1G1 (casein kinase 1 gamma 1)", "reagent": 2, "duplexes agreeing on an effect (of 4)": 1, "signed phospho-ERK fold change vs controls": 1.76}
{"gene": "CSNK1G1 (casein kinase 1 gamma 1)", "reagent": 3, "duplexes agreeing on an effect (of 4)": 1, "signed phospho-ERK fold change vs controls": -1.48}
{"gene": "CSNK1G1 (casein kinase 1 gamma 1)", "reagent": 4, "duplexes agreeing on an effect (of 4)": 1, "signed phospho-ERK fold change vs controls": -1.13}
{"gene": "FN3KRP (fructosamine 3 kinase related protein)", "reagent": 1, "duplexes agreeing on an effect (of 4)": "4 (active)", "signed phospho-ERK fold change vs controls": -2.93}
{"gene": "FN3KRP (fructosamine 3 kinase related protein)", "reagent": 2, "duplexes agreeing on an effect (of 4)": "4 (active)", "signed phospho-ERK fold change vs controls": -1.57}
{"gene": "FN3KRP (fructosamine 3 kinase related protein)", "reagent": 3, "duplexes agreeing on an effect (of 4)": "4 (active)", "signed phospho-ERK fold change vs controls": -2.42}
{"gene": "FN3KRP (fructosamine 3 kinase related protein)", "reagent": 4, "duplexes agreeing on an effect (of 4)": "4 (active)", "signed phospho-ERK fold change vs controls": -3.94}
{"gene": "CRKL (CRK like proto-oncogene, adaptor protein)", "reagent": 1, "duplexes agreeing on an effect (of 4)": 1, "signed phospho-ERK fold change vs controls": -1.93}
{"gene": "CRKL (CRK like proto-oncogene, adaptor protein)", "reagent": 2, "duplexes agreeing on an effect (of 4)": 1, "signed phospho-ERK fold change vs controls": 0.102}
{"gene": "CRKL (CRK like proto-oncogene, adaptor protein)", "reagent": 3, "duplexes agreeing on an effect (of 4)": 1, "signed phospho-ERK fold change vs controls": 0.055}
{"gene": "CRKL (CRK like proto-oncogene, adaptor protein)", "reagent": 4, "duplexes agreeing on an effect (of 4)": 1, "signed phospho-ERK fold change vs controls": 0.038}
{"gene": "STRADA (STE20 related adaptor alpha)", "reagent": 1, "duplexes agreeing on an effect (of 4)": 1, "signed phospho-ERK fold change vs controls": -1.14}
{"gene": "STRADA (STE20 related adaptor alpha)", "reagent": 2, "duplexes agreeing on an effect (of 4)": 1, "signed phospho-ERK fold change vs controls": 1.46}
{"gene": "STRADA (STE20 related adaptor alpha)", "reagent": 3, "duplexes agreeing on an effect (of 4)": 1, "signed phospho-ERK fold change vs controls": -2.06}
{"gene": "STRADA (STE20 related adaptor alpha)", "reagent": 4, "duplexes agreeing on an effect (of 4)": 1, "signed phospho-ERK fold change vs controls": -1.27}
{"gene": "CHKA (choline kinase alpha)", "reagent": 1, "duplexes agreeing on an effect (of 4)": "4 (active)", "signed phospho-ERK fold change vs controls": -1.86}
{"gene": "CHKA (choline kinase alpha)", "reagent": 2, "duplexes agreeing on an effect (of 4)": "4 (active)", "signed phospho-ERK fold change vs controls": -2.02}
{"gene": "CHKA (choline kinase alpha)", "reagent": 3, "duplexes agreeing on an effect (of 4)": "4 (active)", "signed phospho-ERK fold change vs controls": -1.78}
{"gene": "CHKA (choline kinase alpha)", "reagent": 4, "duplexes agreeing on an effect (of 4)": "4 (active)", "signed phospho-ERK fold change vs controls": -3.02}
{"gene": "MAPK1 (mitogen-activated protein kinase 1)", "reagent": 1, "duplexes agreeing on an effect (of 4)": "2 (active)", "signed phospho-ERK fold change vs controls": -1.08}
{"gene": "MAPK1 (mitogen-activated protein kinase 1)", "reagent": 2, "duplexes agreeing on an effect (of 4)": "2 (active)", "signed phospho-ERK fold change vs controls": -1.77}
{"gene": "MAPK1 (mitogen-activated protein kinase 1)", "reagent": 3, "duplexes agreeing on an effect (of 4)": "2 (active)", "signed phospho-ERK fold change vs controls": 1.28}
{"gene": "MAPK1 (mitogen-activated protein kinase 1)", "reagent": 4, "duplexes agreeing on an effect (of 4)": "2 (active)", "signed phospho-ERK fold change vs controls": -1.61}

6 neighbouring reagents already listed:
{"gene": "FN3KRP (fructosamine 3 kinase related protein)", "reagent": 4, "duplexes agreeing on an effect (of 4)": "4 (active)", "signed phospho-ERK fold change vs controls": -3.94}
{"gene": "CRKL (CRK like proto-oncogene, adaptor protein)", "reagent": 1, "duplexes agreeing on an effect (of 4)": 1, "signed phospho-ERK fold change vs controls": -1.93}
{"gene": "CRKL (CRK like proto-oncogene, adaptor protein)", "reagent": 2, "duplexes agreeing on an effect (of 4)": 1, "signed phospho-ERK fold change vs controls": 0.102}
{"gene": "CRKL (CRK like proto-oncogene, adaptor protein)", "reagent": 3, "duplexes agreeing on an effect (of 4)": 1, "signed phospho-ERK fold change vs controls": 0.055}
{"gene": "CRKL (CRK like proto-oncogene, adaptor protein)", "reagent": 4, "duplexes agreeing on an effect (of 4)": 1, "signed phospho-ERK fold change vs controls": 0.038}
{"gene": "STRADA (STE20 related adaptor alpha)", "reagent": 1, "duplexes agreeing on an effect (of 4)": 1, "signed phospho-ERK fold change vs controls": -1.14}

Additional reagents:
{"gene": "PIP5K1B (phosphatidylinositol-4-phosphate 5-kinase type 1 beta)", "reagent": 1, "duplexes agreeing on an effect (of 4)": 1, "signed phospho-ERK fold change vs controls": 2.42}
{"gene": "PIP5K1B (phosphatidylinositol-4-phosphate 5-kinase type 1 beta)", "reagent": 2, "duplexes agreeing on an effect (of 4)": 1, "signed phospho-ERK fold change vs controls": -1.58}
{"gene": "PIP5K1B (phosphatidylinositol-4-phosphate 5-kinase type 1 beta)", "reagent": 3, "duplexes agreeing on an effect (of 4)": 1, "signed phospho-ERK fold change vs controls": 1.12}
{"gene": "PIP5K1B (phosphatidylinositol-4-phosphate 5-kinase type 1 beta)", "reagent": 4, "duplexes agreeing on an effect (of 4)": 1, "signed phospho-ERK fold change vs controls": 1.16}
{"gene": "CDK5 (cyclin dependent kinase 5)", "reagent": 1, "duplexes agreeing on an effect (of 4)": "2 (active)", "signed phospho-ERK fold change vs controls": -1.34}
{"gene": "CDK5 (cyclin dependent kinase 5)", "reagent": 2, "duplexes agreeing on an effect (of 4)": "2 (active)", "signed phospho-ERK fold change vs controls": 1.42}
{"gene": "CDK5 (cyclin dependent kinase 5)", "reagent": 3, "duplexes agreeing on an effect (of 4)": "2 (active)", "signed phospho-ERK fold change vs controls": -1.82}
{"gene": "CDK5 (cyclin dependent kinase 5)", "reagent": 4, "duplexes agreeing on an effect (of 4)": "2 (active)", "signed phospho-ERK fold change vs controls": -1.8}
{"gene": "PIKFYVE (phosphoinositide kinase, FYVE-type zinc finger containing)", "reagent": 1, "duplexes agreeing on an effect (of 4)": "2 (active)", "signed phospho-ERK fold change vs controls": 1.42}
{"gene": "PIKFYVE (phosphoinositide kinase, FYVE-type zinc finger containing)", "reagent": 2, "duplexes agreeing on an effect (of 4)": "2 (active)", "signed phospho-ERK fold change vs controls": -0.019}
{"gene": "PIKFYVE (phosphoinositide kinase, FYVE-type zinc finger containing)", "reagent": 3, "duplexes agreeing on an effect (of 4)": "2 (active)", "signed phospho-ERK fold change vs controls": -1.56}
{"gene": "PIKFYVE (phosphoinositide kinase, FYVE-type zinc finger containing)", "reagent": 4, "duplexes agreeing on an effect (of 4)": "2 (active)", "signed phospho-ERK fold change vs controls": -1.63}
{"gene": "MELK (maternal embryonic leucine zipper kinase)", "reagent": 1, "duplexes agreeing on an effect (of 4)": 1, "signed phospho-ERK fold change vs controls": -1.29}
{"gene": "MELK (maternal embryonic leucine zipper kinase)", "reagent": 2, "duplexes agreeing on an effect (of 4)": 1, "signed phospho-ERK fold change vs controls": 1.13}
{"gene": "MELK (maternal embryonic leucine zipper kinase)", "reagent": 3, "duplexes agreeing on an effect (of 4)": 1, "signed phospho-ERK fold change vs controls": -1.36}
{"gene": "MELK (maternal embryonic leucine zipper kinase)", "reagent": 4, "duplexes agreeing on an effect (of 4)": 1, "signed phospho-ERK fold change vs controls": -1.62}
